PMC8931120
For some of these results: No signal at the amounts used counts as a negative. For some of these results: The exact form of at least one protein or probe is not confirmed. For some of these results: Weaker means in comparison with the reference protein, sequence or condition of that experiment. For some of these results: At least one verdict was read from the data and is not stated in words by the source.

Key:
[1] = target: LC3B-WT (mature, cleaved by ATG4B) (human) (UniProt Q9GZQ8); test: EMSA; conditions: 1 mM Mg2+, 2 uM probe; EMSA: 40 mM Tris pH 8.0, 30 mM KCl, 1 mM MgCl2, 0.01% NP-40, 1 mM DTT, 30 C 1 h; recombinant protein; residues 1-120; protein details: MBP fusion cleaved off by human ATG4B
[2] = target: BSA (UniProt P02769); test: EMSA; conditions: 1 mM Mg2+, 2 uM probe; EMSA: 40 mM Tris pH 8.0, 30 mM KCl, 1 mM MgCl2, 0.01% NP-40, 1 mM DTT, 30 C 1 h
[3] = target: LC3B-WT (mature, cleaved by ATG4B) (human) (UniProt Q9GZQ8); test: fluorescence polarization; conditions: 1 mM Mg2+, FP: same buffer without NP-40, 100 nM RNA final (200 nM stock diluted 1:2), protein 3.4-880 uM, temperature not stated, recombinant protein, residues 1-120, protein details: MBP fusion cleaved off by human ATG4B

AAAAAAAAAAAAAAAAAA [Cy5-AAAAAAx3]
binding result [1]: binds more weakly

AAUAAAAAUAAAAAUAAA [Cy5-AAUAAAx3]
binding result [2]: no binding

ACGCCAAAAAAA [Cy5-ACGCCAAAAAAA]
binding result ([3]; Kd or nd only in figure): binds more weakly

ACGCCAAUAAAA [Cy5-ACGCCAAUAAAA]
binding result ([3]; Kd printed only in figure): binds
